Experimental data taken from publication PMC9176245.

Tested on: Cbf5 + Nop10 + Gar1 + Nhp2
Experiment: filter binding
Conditions: RNP with snR30 (N1), 20 mM HEPES-KOH pH 7.4, 150 mM NaCl, 1.5 mM MgCl2, 10% glycerol, 30°C, 10 min, nitrocellulose filtration, recombinant protein, label: 3H-UTP, probe letters rebuilt from the primers and the genome

| Sequence | Kd (amplitude 410%) | Kd (1 µM E. coli tRNAPhe) | Kd (amplitude 1280%) |
| --- | --- | --- | --- |
| GGGCCGACUAGGGAUCGGGUGGUGUUUUUUUAAUGACCCACUCGGCACCUUACGAGAAAUCAAAGUCUUUGGGU [H25/26] | 225 nM | – | – |
| GGGUUAAUAGGGACGGUCGGGGGCAUCAGUAUUCAAUUGUCAGAGGUGAAAUUCUUGGAUUUAUUGAAGACUAACUACUGCGAAAGCAUUUGCCAAGGACGUUUUC [H22/23] | – | 459 nM | 276 nM |

For at least one entry, the source does not settle the construct or the ends of the probe.
